# Assay results

The results are deposited in PubChem (AID504749; NCATS, 2011).

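Malaria parasite (P. falciparum) lines kept in red blood cells; parasite DNA is measured by SYBR Green fluorescence after lysis, 72 h after compound addition.
Each compound was titrated across a series from about 0.000037 to 29 µM.
The number is the fitted AC50, the concentration giving a half-maximal change in signal; a lower value means higher potency, whether the curve shows a decrease or an increase.
Calls follow the curve class and fit quality: every row here is inconclusive, covering signal-raising curves and weak, poorly fitted, partial or highest-dose-only inhibition curves.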

Values are in µM.
Every entry below has the call inconclusive.
These entries are mostly ones the record files as inconclusive; other results of the assay are not listed here.
Potencies fitted to partial, single-point or poorly fitting curves are rough.

Result for CN1CCCC(n2nc(Cc3ccc(Cl)cc3)c3ccccc3c2=O)CC1 (stereo not given) [CP335] was fitted potency 12 µM (inhibitor, partial curve, poor fit).
Result for CN1CCCC(n2nc(Cc3ccc(Cl)cc3)c3ccccc3c2=O)CC1 (stereo not given) [CP203] was fitted potency 6.012 µM (inhibitor, partial curve).
Result for CN1CCCC(n2nc(Cc3ccc(Cl)cc3)c3ccccc3c2=O)CC1 (stereo not given) [C2A] was fitted potency 11.22 µM (inhibitor, single point).
Result for CN1CCCC(n2nc(Cc3ccc(Cl)cc3)c3ccccc3c2=O)CC1 (stereo not given) [N140] was fitted potency 11.22 µM (inhibitor, single point).
Result for CN1CCCC(n2nc(Cc3ccc(Cl)cc3)c3ccccc3c2=O)CC1 (stereo not given) [TAB109] was fitted potency 10 µM (inhibitor, single point).
Result for CN1CCCC(n2nc(Cc3ccc(Cl)cc3)c3ccccc3c2=O)CC1 (stereo not given) [CP217] was fitted potency 14.13 µM (inhibitor, single point).
Result for CN1CCCC(n2nc(Cc3ccc(Cl)cc3)c3ccccc3c2=O)CC1 (stereo not given) [CP297] was fitted potency 6.012 µM (inhibitor, partial curve, poor fit).
Result for CN1CCCC(n2nc(Cc3ccc(Cl)cc3)c3ccccc3c2=O)CC1 (stereo not given) [CP191] was fitted potency 17.78 µM (inhibitor, single point).
Result for CN1CCCC(n2nc(Cc3ccc(Cl)cc3)c3ccccc3c2=O)CC1 (stereo not given) [P93_24] was fitted potency 10 µM (inhibitor, partial curve).
Result for CN1CCCC(n2nc(Cc3ccc(Cl)cc3)c3ccccc3c2=O)CC1 (stereo not given) [ATS189] was fitted potency 11.22 µM (inhibitor, single point).
Result for CN1CCCC(n2nc(Cc3ccc(Cl)cc3)c3ccccc3c2=O)CC1 (stereo not given) [JCK] was fitted potency 12.59 µM (inhibitor, single point).
Result for CN1CCCC(n2nc(Cc3ccc(Cl)cc3)c3ccccc3c2=O)CC1 (stereo not given) [ECU] was fitted potency 7.943 µM (inhibitor, partial curve).
Result for CN1CCCC(n2nc(Cc3ccc(Cl)cc3)c3ccccc3c2=O)CC1 (stereo not given) [CP247] was fitted potency 17.78 µM (inhibitor, single point).
Result for CN(C)[C@@H]1C(=O)C(C(N)=O)=C(O)[C@@]2(O)C(=O)C3=C(O)c4c(O)cccc4[C@@](C)(O)[C@H]3[C@H](O)[C@@H]12 [HB3] was fitted potency 10 µM (inhibitor, partial curve).

The last 2 entries again:

- CN1CCCC(n2nc(Cc3ccc(Cl)cc3)c3ccccc3c2=O)CC1 (stereo not given) [CP247] : fitted potency 17.78 µM (inhibitor, single point)
- CN(C)[C@@H]1C(=O)C(C(N)=O)=C(O)[C@@]2(O)C(=O)C3=C(O)c4c(O)cccc4[C@@](C)(O)[C@H]3[C@H](O)[C@@H]12 [HB3] : fitted potency 10 µM (inhibitor, partial curve)